Test system: Pimephales promelas
Assay: 96 h LC50 (-log10 mol/L); higher = more toxic

SMILES | 96 h LC50 (-log10 mol/L)
CCCCCCCC1CCC(=O)O1 (configuration not stated) | 2.09
CC(C)(C)c1ccc(O)cc1 | 4.47
